The values that follow are results of earlier work, collected in PMC12881681 (Molecular Pharmacology, 2025).

The conditions of this data set: healthy non-smoker volunteers, single 150 mg dose of erlotinib; cited from earlier work.

The structures appear in SMILES notation. Not every entry of the source has a single result; some have several. They are shown here; other results are not. There may be further records. Values given together do not match, cause unknown; they may come from other doses, times, organisms or constructs than stated.

Turning to `C#Cc1cccc(Nc2ncnc3cc(OCCOC)c(OCCO)cc23)c1` [O-Desmethylerlotinib, O-desmethylerlotinib], the Cmax is 43.5–98.3 ng/mL and 110 nM to 260 nM.
